The test concerns the target Insulin-like growth factor binding protein-3 (human (endogenous in SAS)) (UniProt P17936). Put plainly: co-IP; SAS cell lysates in RIPA buffer (25 mM tris-HCl pH 7.6, 150 mM NaCl, 1% NP-40, 1% sodium deoxycholate, 0.1% SDS) immunoprecipitated with anti-IGFBP-3 antibody and protein A-Sepharose; immunoblot with anti-EGFR and anti-phospho-DNA-PKcs; cells with or without 10 Gy X-ray irradiation (complexes increased after 10 Gy).

Protein sequences, listed by entry. Tags and fused reporters are not part of them.
UniProt P78527: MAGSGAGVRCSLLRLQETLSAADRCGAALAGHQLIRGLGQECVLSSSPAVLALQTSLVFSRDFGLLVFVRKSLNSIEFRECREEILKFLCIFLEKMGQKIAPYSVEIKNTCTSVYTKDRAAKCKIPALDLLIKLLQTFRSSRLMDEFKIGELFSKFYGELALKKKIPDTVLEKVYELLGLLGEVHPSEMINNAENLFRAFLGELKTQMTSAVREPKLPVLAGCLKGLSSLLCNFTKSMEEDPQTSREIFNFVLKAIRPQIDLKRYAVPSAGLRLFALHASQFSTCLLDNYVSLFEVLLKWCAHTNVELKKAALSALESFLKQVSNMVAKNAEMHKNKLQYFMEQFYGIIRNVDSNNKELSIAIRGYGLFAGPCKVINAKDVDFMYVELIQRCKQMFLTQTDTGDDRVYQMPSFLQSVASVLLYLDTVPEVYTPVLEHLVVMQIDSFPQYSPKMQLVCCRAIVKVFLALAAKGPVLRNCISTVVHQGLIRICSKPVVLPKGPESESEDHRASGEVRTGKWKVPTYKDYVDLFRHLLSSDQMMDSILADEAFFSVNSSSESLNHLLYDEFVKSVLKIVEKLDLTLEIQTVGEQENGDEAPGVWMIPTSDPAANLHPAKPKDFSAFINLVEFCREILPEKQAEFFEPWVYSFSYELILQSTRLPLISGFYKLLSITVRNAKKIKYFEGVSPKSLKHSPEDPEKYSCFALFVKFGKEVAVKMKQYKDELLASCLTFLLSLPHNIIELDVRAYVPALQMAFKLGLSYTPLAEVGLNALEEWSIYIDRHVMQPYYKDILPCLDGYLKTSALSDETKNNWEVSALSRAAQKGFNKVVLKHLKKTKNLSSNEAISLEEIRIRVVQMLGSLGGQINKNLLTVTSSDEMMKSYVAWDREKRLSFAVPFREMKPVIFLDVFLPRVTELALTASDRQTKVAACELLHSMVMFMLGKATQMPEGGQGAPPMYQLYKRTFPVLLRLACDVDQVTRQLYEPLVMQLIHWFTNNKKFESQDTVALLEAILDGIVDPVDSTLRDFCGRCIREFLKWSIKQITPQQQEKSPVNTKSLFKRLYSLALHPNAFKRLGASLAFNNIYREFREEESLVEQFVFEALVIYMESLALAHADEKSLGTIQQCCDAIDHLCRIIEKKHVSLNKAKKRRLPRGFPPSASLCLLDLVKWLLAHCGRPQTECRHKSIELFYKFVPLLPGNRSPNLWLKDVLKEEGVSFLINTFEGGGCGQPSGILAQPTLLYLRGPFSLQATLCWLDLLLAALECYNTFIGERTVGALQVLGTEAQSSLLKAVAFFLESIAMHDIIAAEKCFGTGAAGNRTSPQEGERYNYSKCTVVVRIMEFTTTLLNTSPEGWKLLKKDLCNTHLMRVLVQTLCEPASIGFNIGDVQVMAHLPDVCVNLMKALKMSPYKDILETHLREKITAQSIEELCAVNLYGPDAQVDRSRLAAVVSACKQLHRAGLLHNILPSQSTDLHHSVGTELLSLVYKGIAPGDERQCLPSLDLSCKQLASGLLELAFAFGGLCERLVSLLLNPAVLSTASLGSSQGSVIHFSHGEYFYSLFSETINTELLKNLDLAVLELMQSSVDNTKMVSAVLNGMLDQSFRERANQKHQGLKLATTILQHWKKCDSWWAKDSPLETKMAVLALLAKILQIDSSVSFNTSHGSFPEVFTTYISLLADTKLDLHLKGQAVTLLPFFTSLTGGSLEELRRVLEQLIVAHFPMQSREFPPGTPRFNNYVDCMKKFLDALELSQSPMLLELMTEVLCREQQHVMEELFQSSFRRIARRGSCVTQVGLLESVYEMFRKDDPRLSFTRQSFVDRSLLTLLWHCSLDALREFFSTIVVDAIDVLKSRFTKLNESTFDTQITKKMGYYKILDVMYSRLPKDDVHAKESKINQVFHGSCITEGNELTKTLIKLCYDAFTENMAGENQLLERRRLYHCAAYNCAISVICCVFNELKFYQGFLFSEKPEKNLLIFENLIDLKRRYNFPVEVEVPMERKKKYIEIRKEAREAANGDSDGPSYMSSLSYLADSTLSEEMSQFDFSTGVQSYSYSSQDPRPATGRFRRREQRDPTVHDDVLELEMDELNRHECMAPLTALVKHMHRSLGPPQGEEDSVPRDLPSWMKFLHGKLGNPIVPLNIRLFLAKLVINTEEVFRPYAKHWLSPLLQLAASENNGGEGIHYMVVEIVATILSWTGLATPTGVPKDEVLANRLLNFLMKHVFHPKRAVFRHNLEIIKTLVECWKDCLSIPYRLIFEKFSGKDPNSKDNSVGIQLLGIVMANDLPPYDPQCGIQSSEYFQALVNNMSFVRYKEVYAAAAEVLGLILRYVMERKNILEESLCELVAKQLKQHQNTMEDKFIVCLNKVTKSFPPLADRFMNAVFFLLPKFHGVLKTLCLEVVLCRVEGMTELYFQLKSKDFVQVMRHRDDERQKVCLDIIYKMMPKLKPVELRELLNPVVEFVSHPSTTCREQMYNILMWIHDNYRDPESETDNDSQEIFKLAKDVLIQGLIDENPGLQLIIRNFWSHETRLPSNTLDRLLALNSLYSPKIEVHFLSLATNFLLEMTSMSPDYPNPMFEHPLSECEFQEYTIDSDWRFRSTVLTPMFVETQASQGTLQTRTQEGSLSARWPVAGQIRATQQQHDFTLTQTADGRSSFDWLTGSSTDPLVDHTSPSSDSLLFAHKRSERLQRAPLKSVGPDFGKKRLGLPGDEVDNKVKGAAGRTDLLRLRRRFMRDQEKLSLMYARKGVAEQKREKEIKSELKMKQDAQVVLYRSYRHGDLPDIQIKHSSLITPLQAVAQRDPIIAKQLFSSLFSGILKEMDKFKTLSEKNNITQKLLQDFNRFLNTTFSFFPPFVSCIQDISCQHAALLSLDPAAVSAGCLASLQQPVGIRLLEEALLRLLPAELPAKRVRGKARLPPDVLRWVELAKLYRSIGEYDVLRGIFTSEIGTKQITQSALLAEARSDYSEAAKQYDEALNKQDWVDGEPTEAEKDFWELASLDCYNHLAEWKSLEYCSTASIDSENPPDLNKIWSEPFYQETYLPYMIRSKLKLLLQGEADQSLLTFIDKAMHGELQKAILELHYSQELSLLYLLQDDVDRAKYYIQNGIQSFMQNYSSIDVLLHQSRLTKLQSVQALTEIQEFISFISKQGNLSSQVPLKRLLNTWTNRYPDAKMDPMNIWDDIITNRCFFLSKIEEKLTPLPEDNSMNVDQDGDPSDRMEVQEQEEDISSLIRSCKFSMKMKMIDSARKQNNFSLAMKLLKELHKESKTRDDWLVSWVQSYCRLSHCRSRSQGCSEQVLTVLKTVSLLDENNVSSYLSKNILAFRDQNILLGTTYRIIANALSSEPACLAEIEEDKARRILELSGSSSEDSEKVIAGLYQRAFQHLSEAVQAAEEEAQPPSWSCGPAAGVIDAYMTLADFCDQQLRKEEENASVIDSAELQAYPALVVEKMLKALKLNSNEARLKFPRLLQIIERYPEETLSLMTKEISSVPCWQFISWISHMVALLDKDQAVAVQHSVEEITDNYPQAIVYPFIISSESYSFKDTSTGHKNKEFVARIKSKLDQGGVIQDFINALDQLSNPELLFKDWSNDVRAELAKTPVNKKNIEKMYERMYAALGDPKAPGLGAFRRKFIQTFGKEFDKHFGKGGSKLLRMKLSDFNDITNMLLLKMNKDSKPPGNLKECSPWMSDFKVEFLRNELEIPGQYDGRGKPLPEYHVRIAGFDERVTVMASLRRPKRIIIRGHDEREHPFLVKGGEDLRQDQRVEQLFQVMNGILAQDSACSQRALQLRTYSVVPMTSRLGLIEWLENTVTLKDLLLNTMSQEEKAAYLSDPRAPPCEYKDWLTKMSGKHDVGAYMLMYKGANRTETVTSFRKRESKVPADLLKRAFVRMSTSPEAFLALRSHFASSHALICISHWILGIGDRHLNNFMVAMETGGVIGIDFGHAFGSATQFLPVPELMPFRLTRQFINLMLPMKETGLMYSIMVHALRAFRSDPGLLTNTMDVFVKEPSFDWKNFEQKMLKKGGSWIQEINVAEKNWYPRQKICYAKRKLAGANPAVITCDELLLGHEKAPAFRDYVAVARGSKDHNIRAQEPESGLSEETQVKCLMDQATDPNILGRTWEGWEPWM

Results are given in words; binding and its absence hold for the method and conditions named. Binding seen in cells or lysates may run through a third protein. Some entries that bind do so weakly or less than the wild type.

In the case of “epidermal growth factor receptor (from UniProt P00533 25-1210)”, the binding entry is “binds”.
The result for “phosphorylated DNA-dependent protein kinase catalytic subunit (S2056) (from UniProt P78527 1-4128) (enzyme)” reads “binds”.

The values above are taken from article PMC7072421.
